Laboratory results from paper PMC5132261.
These are yes or no findings as the source states them, for the method shown. Sequences can lack the tags named with a protein.

Target: T1, GFP-ELKS2 (UniProt Q8K3M6)
T1 sequence: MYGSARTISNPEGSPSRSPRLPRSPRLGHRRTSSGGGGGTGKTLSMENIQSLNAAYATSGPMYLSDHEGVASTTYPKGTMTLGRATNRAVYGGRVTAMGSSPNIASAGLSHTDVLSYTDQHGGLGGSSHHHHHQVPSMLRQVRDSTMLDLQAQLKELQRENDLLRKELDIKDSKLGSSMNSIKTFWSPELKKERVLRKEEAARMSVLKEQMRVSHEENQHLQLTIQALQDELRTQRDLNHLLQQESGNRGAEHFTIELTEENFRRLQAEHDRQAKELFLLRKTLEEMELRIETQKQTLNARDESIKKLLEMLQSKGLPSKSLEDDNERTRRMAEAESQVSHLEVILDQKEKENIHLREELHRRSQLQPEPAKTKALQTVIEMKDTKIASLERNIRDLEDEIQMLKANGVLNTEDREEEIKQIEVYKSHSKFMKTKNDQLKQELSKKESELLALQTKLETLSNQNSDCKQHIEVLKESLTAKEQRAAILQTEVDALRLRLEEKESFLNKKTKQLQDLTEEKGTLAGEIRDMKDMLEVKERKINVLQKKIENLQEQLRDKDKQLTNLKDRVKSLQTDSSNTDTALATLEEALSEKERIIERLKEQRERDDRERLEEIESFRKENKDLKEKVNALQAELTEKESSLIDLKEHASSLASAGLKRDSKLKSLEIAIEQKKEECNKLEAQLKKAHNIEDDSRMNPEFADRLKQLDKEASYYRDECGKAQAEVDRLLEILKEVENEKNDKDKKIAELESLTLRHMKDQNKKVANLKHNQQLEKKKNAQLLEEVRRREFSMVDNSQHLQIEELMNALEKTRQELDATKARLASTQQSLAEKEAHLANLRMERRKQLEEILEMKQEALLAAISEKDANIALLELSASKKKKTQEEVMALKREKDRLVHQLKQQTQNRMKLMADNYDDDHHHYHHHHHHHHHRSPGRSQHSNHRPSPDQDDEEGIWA
Experiment: co-clustering assay (immunofluorescence of co-transfected COS7 cells); Myc-tagged Trio proteins scored for clustering with the puncta of GFP-Bassoon (or GFP-ELKS2); positive: more than 70% of cells, negative: fewer than 10% of cells

binding: no binding
Substance: Myc-Trio-FL (human)
